Results as given in patent publication US8921382B2, “Thiazolo[5,4-d] pyrimidines and their use as agrochemicals” (Dow AgroSciences, LLC., priority 2010, dated 2014).
The name of at least one read-out is uncertain. Some entries repeat one wording, which the source may state once for all of them.

Tested on: DROSME, AEDSAE, MYZUPE or LAPHEG
Test: Insecticidal activity screen (mortality on diet, water or plants; any of four species)
Type: in vivo
Conditions: active if any species controlled at 80% or more; DROSME 80 μg/well, AEDSAE 6 μg per well, LAPHEG 12 μg per well, MYZUPE 200 ppm

Structure (SMILES)	Activity against Insects
Fc1cnc(C(F)(F)F)c(F)c1Oc1ccc(CCNc2ncnc3scnc23)cc1 [Compound 33, {2-[4-(3,5-difluoro-2-trifluoromethylpyridin-4-yloxy)-phenyl]-ethyl}-thiazolo[5,4-d]pyrimidin-7-ylamine]	+ (“+” indicates activity)
CC(Cc1ccc(Oc2cc(C(F)(F)F)ccn2)cc1)Nc1ncnc2scnc12 (stereo not drawn) [Compound 18, {1-methyl-2-[4-(4-trifluoromethylpyridin-2-yloxy)-phenyl]-ethyl}-thiazolo[5,4-d]pyrimidin-7-ylamine]	+ (“+” indicates activity)
Cc1cc(Oc2cc(C(F)(F)F)ccn2)c(C)cc1CCNc1ncnc2scnc12 [Compound 13, {2-[2,5-dimethyl-4-(4-trifluoromethylpyridin-2-yloxy)-phenyl]-ethyl}-thiazolo[5,4-d]pyrimidin-7-ylamine]	+ (“+” indicates activity)
Cc1cc(O)ccc1CCNc1ncnc2scnc12 [Compound 57, 3-methyl-4-[2-(thiazolo[5,4-d]pyrimidin-7-ylamino)-ethyl]-phenol]	− (“−” indicates lack of activity)
Oc1ccc(CCNc2ncnc3scnc23)cc1 [Compound 3, 4-[2-(thiazolo[5,4-d]pyrimidin-7-ylamino)-ethyl]-phenol]	− (“−” indicates lack of activity)
COc1cc(CCNc2ncnc3scnc23)ccc1Oc1cc(C(F)(F)F)ncn1 [Compound 54, {2-[3-methoxy-4-(6-trifluoromethylpyrimidin-4-yloxy)-phenyl]-ethyl}-thiazolo[5,4-d]pyrimidin-7-ylamine]	+ (“+” indicates activity)
FC(F)(F)c1cc(Oc2ccc(CCNc3ncnc4scnc34)cc2)ccn1 [Compound 40, thiazolo[5,4-d]pyrimidin-7-yl-{2-[4-(2-trifluoromethylpyridin-4-yloxy)-phenyl]-ethyl}-amine]	+ (“+” indicates activity)
Cc1cc(CCNc2ncnc3scnc23)ccc1Oc1ncccc1C(F)(F)F [Compound 24, {2-[3-methyl-4-(3-trifluoromethylpyridin-2-yloxy)-phenyl]-ethyl}-thiazolo[5,4-d]pyrimidin-7-ylamine]	+ (“+” indicates activity)
Oc1ccc(CCNc2ncnc3scnc23)c(F)c1 [Compound 58, 3-fluoro-4-[2-(thiazolo[5,4-d]pyrimidin-7-ylamino)-ethyl]phenol]	− (“−” indicates lack of activity)
Fc1cc(CCNc2ncnc3scnc23)ccc1Oc1cc(C(F)(F)F)ccn1 [Compound 41, {2-[3-fluoro-4-(4-trifluoromethylpyridin-2-yloxy)-phenyl]-ethyl}-thiazolo[5,4-d]pyrimidin-7-ylamine]	+ (“+” indicates activity)
COc1ccc(C(C)Nc2ncnc3scnc23)cc1 (stereo not drawn) [Compound 1, [1-(4-Methoxyphenyl)-ethyl]-thiazolo[5,4-d]pyrimidin-7-yl-amine]	− (“−” indicates lack of activity)
COc1ccc(CCNc2ncnc3scnc23)cc1C [Compound 19, [2-(4-methoxy-3-methylphenyl)-ethyl]-thiazolo[5,4-d]pyrimidin-7-ylamine]	− (“−” indicates lack of activity)
